Source: paper PMC3594309
No constants are given. Whether binding was seen depends on the method and setting. Binding seen in cells or lysates may run through a third protein. Some binding calls cover weakened binding; strength is not graded here. For some assays here: Sequences can lack the tags named with a protein. Blank lines part the entries; values can stand above or below the molecule they belong to.

Protein sequences, listed by entry. Tags and fused reporters are not part of them.
UniProt P45973: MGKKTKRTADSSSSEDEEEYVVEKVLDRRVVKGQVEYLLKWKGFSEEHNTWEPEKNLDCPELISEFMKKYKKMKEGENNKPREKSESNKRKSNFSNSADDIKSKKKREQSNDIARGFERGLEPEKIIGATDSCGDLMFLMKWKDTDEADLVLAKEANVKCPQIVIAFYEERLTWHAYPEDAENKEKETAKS
UniProt Q61686: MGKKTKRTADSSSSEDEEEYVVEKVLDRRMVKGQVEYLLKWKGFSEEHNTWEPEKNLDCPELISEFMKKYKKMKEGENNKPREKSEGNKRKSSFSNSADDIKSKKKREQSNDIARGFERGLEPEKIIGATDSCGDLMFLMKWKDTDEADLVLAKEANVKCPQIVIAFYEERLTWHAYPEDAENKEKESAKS

Columns and labels:
[1] = target: T1, endogenous JHDM3A (mouse (endogenous in C2C12)) (UniProt Q8BW72); test: co-IP; nuclear extracts of unmodified C2C12 myoblasts; IP with anti-HP1α or anti-JHDM3A, blot for HP1α and JHDM3A
T1 sequence: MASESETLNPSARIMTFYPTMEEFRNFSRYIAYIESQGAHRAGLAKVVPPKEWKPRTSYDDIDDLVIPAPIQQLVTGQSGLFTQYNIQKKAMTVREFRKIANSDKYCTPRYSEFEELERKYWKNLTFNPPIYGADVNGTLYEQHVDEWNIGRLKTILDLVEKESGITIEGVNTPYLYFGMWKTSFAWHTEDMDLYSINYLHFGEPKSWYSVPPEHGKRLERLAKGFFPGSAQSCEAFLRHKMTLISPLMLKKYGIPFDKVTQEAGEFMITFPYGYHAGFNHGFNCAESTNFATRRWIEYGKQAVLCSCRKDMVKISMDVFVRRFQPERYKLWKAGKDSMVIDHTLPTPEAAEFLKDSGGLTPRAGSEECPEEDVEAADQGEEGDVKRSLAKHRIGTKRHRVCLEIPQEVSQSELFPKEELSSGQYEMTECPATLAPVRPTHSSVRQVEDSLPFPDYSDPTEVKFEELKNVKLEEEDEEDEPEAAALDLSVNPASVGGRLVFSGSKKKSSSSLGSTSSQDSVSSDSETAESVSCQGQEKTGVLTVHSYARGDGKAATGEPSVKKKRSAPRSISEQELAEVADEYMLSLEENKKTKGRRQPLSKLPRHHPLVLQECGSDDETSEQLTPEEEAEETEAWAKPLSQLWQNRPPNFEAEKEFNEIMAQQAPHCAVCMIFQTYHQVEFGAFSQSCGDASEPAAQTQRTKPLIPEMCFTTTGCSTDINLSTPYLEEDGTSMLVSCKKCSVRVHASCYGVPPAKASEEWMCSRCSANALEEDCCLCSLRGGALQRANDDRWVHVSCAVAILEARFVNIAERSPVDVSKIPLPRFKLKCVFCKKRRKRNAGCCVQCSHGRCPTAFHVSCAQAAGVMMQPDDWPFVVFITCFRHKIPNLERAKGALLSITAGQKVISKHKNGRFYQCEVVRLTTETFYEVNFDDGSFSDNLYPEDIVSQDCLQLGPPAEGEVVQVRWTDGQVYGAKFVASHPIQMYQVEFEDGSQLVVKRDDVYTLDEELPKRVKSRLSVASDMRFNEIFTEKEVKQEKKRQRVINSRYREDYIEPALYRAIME

Flag-JHDM3A = target: T2, Flag-JHDM3A (UniProt O75164); test: co-IP; nuclear extracts of NIH3T3 cells over-expressing Flag-JHDM3A and GFP-HP1α; IP with anti-Flag or anti-GFP, blot with anti-HP1α or anti-JHDM3A
T2 sequence: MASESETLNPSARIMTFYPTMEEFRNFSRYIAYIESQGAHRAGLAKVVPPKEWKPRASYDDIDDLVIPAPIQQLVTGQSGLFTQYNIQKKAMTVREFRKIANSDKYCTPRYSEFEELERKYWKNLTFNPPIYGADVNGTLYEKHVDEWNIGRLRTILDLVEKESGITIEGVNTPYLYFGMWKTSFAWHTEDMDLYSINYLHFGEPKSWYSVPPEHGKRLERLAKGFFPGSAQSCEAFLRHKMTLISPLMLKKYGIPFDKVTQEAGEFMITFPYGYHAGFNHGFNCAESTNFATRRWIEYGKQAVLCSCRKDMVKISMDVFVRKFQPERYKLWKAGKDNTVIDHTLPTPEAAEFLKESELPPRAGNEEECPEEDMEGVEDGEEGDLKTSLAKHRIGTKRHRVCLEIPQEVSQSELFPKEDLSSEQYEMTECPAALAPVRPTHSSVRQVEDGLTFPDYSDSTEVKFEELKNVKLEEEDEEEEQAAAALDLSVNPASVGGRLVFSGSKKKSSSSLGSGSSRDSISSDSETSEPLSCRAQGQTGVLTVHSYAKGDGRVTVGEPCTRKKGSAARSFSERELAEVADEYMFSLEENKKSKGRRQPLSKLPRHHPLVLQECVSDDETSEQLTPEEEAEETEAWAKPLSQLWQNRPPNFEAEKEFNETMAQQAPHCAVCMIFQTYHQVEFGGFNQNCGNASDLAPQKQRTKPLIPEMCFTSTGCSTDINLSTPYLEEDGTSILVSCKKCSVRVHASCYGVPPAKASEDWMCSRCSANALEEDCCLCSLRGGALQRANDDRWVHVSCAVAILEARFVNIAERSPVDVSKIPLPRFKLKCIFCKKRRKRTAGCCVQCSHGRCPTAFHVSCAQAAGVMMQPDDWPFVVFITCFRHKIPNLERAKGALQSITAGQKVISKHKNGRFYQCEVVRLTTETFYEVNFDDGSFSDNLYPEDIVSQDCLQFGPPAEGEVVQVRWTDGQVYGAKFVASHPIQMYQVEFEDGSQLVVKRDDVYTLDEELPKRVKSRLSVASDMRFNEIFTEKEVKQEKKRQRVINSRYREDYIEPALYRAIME

GFP-HP1α = GFP-HP1α (UniProt P45973); test: as above
[2] = target: recombinant GST-HP1α fusion protein (UniProt Q61686); test: pull-down; in vitro translated 35S-JHDM3A incubated with GST or GST-HP1α immobilized on glutathione beads; SDS-PAGE and autoradiography; only the target purified
[3] = target: endogenous HP1α (mouse (endogenous in C2C12)) (UniProt Q61686); test: co-IP; nuclear extracts of unmodified C2C12 myoblasts; IP with anti-HP1α or anti-JHDM3A, blot for HP1α and JHDM3A

Molecule: GFP-HP1α (from UniProt P45973 1-191)
binding (Flag-JHDM3A): binds

B1: Flag-JHDM3A (protein, UniProt O75164 1-1064)
chain: T2 sequence
binding (GFP-HP1α): binds

More lines, now with the values ahead:

binding [1]: binds
Molecule: endogenous HP1α (from UniProt Q61686 1-191)

binding [2]: binds
B2: In vitro translated 35S-methionine-labeled JHDM3A (protein, UniProt O75164 1-1064)
chain: T2 sequence
modifications: 35S-methionine-labeled

binding [3]: binds
B3: endogenous JHDM3A (protein, UniProt Q8BW72 1-1064)
chain: T1 sequence
